For 1 molecule, binding results are on record in patent EP1147413B1.

Experiment [1] has as its target T1, mature mouse GDF-8 with C-terminal FLAG, processed from WT-F-GDF-8 in QM-7 cells (mouse) (UniProt O08689).
T1 sequence (looked up): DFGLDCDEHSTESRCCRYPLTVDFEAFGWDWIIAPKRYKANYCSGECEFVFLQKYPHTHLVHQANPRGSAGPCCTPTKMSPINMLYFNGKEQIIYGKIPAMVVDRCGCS
As to the kind of experiment: co-purification on anti-FLAG affinity gel from medium of QM-7 cells transfected with WT GDF-8-FLAG, N-terminal sequencing of the bands.

The target in experiment [2] is T1, mature mouse GDF-8 with C-terminal FLAG, processed from WT-F-GDF-8 in QM-7 cells (mouse). Briefly: co-purification by anti-FLAG affinity chromatography, size fractionation and reporter assay of the complexes.

Results are given in words; binding and its absence hold for the method and conditions named. In cells and extracts the contact can be indirect. Some results given as binding are weak or reduced against the parent protein; the word gives no strength. Tags and fused reporters may be left off the sequences shown.

B1: mouse GDF-8 pro-domain without tag, lacking the signal peptide, released from WT-GDF-8-F in QM-7 cells (protein, UniProt O08689 20-267, looked up)
chain: GPVDLNEGSEREENVEKEGLCNACAWRQNTRYSRIEAIKIQILSKLRLETAPNISKDAIRQLLPRAPPLRELIDQYDVQRDDSSDGSLEDDDYHATTETIITMPTESDFLMQADGKPKCCFFKFSSKIQYNKVVKAQLWIYLRPVKTPTTVFVQILRLIKPMKDGTRYTGIRSLKLDMSPGTGIWQSIDVKTVLQNWLKQPESNLGIEIKALDENGHDLAVTFPGPGEDGLNPFLEVKVTDTPKRSRR
Consider B1, for which the binding entry in experiment [1] and in experiment [2] was “binds” each time.
